# Assay results from US20210309631A1, “SALT OF CYCLOHEXANE DERIVATIVE” (priority 2018, published 2021).
# Further values from the same series stand in other lists.
# Assay: In vivo individual difference analysis: individual plasma concentration versus time in rats (Example 8)
# Design: species or system SD rats
# Settings: intragastric 1 mg/kg, listed as Phosphate of Compound of Formula I
# Method: Compound of Formula I and salts thereof (sulfate, hydrochloride salt, phosphate, maleate), supplied by Shanghai Jingxin Biopharmaceutical Co., Ltd. • Strain: SD rats; Gender: male; Body weight: about 250 grams; Source: shanghai Jiesijie Experimental Animal Co., Ltd Route: single intragastric administration; Capacity: measured in 10 mL/kg body weight Preparation: weighing appropriate amount of the free base or salt of the compound of Formula I, adding a small amount of 0.5% CMC-Na to grind, adding 0.5% CMC-Na to the volume. The concentration is measured as the base. 20 SD rats were divided into 5 groups with 4 rats in each group, fasted for 12 h and drank freely before administration. […] The blood was anticoagulated with 1% heparin, the plasma was separated by 8000 rpm centrifugation for 4 min and stored at -40° C. for testing. LC-MS/MS Method. Pharmacokinetic parameters after administration in rats were calculated using a non-compartmental model of DAS 2.0 software.
smiles,measurement,setting,value
"CN(C)C(=O)N[C@H]1CC[C@H](CCN2CCN(c3cccc4ccsc34)CC2)CC1 [Example 4, N′-[trans-4-[2-[7-(benzo[b]thiophene)-7-piperazinyl]ethyl]cyclohexyl]-N,N-dimethylurea]",Plasma Concentrations of Compound of Formula I,"5 min after administration, Mean ± SD",6.65 ± 5.31 ng/mL
same,Plasma Concentrations of Compound of Formula I,"5 min after administration, rat 1♂",5.28 ng/mL
same,Plasma Concentrations of Compound of Formula I,"5 min after administration, rat 2♂",3.26 ng/mL
same,Plasma Concentrations of Compound of Formula I,"5 min after administration, rat 3♂",14.5 ng/mL
same,Plasma Concentrations of Compound of Formula I,"5 min after administration, rat 4♂",3.54 ng/mL
same,Plasma Concentrations of Compound of Formula I,"0.167 h after administration, Mean ± SD",13.3 ± 2.09 ng/mL
same,Plasma Concentrations of Compound of Formula I,"0.167 h after administration, rat 1♂",10.5 ng/mL
same,Plasma Concentrations of Compound of Formula I,"0.167 h after administration, rat 2♂",13.0 ng/mL
same,Plasma Concentrations of Compound of Formula I,"0.167 h after administration, rat 3♂",14.8 ng/mL
same,Plasma Concentrations of Compound of Formula I,"0.167 h after administration, rat 4♂",15.0 ng/mL
same,Plasma Concentrations of Compound of Formula I,"0.333 h after administration, Mean ± SD",44.0 ± 18.5 ng/mL
same,Plasma Concentrations of Compound of Formula I,"0.333 h after administration, rat 1♂",69.7 ng/mL
same,Plasma Concentrations of Compound of Formula I,"0.333 h after administration, rat 2♂",25.9 ng/mL
same,Plasma Concentrations of Compound of Formula I,"0.333 h after administration, rat 3♂",42.5 ng/mL
same,Plasma Concentrations of Compound of Formula I,"0.333 h after administration, rat 4♂",37.9 ng/mL
same,Plasma Concentrations of Compound of Formula I,"0.5 h after administration, Mean ± SD",45.4 ± 19.2 ng/mL
same,Plasma Concentrations of Compound of Formula I,"0.5 h after administration, rat 1♂",66.7 ng/mL
same,Plasma Concentrations of Compound of Formula I,"0.5 h after administration, rat 2♂",23.2 ng/mL
same,Plasma Concentrations of Compound of Formula I,"0.5 h after administration, rat 3♂",54.7 ng/mL
same,Plasma Concentrations of Compound of Formula I,"0.5 h after administration, rat 4♂",37.0 ng/mL
same,Plasma Concentrations of Compound of Formula I,"1 h after administration, Mean ± SD",46.8 ± 11.4 ng/mL
same,Plasma Concentrations of Compound of Formula I,"1 h after administration, rat 1♂",51.1 ng/mL
same,Plasma Concentrations of Compound of Formula I,"1 h after administration, rat 2♂",34.7 ng/mL
same,Plasma Concentrations of Compound of Formula I,"1 h after administration, rat 3♂",60.6 ng/mL
same,Plasma Concentrations of Compound of Formula I,"1 h after administration, rat 4♂",40.8 ng/mL
same,Plasma Concentrations of Compound of Formula I,"2 h after administration, Mean ± SD",25.3 ± 8.57 ng/mL
same,Plasma Concentrations of Compound of Formula I,"2 h after administration, rat 1♂",25.9 ng/mL
same,Plasma Concentrations of Compound of Formula I,"2 h after administration, rat 2♂",20.0 ng/mL
same,Plasma Concentrations of Compound of Formula I,"2 h after administration, rat 3♂",37.2 ng/mL
same,Plasma Concentrations of Compound of Formula I,"2 h after administration, rat 4♂",18.2 ng/mL
same,Plasma Concentrations of Compound of Formula I,"4 h after administration, Mean ± SD",10.4 ± 3.07 ng/mL
same,Plasma Concentrations of Compound of Formula I,"4 h after administration, rat 1♂",10.4 ng/mL
same,Plasma Concentrations of Compound of Formula I,"4 h after administration, rat 2♂",10.7 ng/mL
same,Plasma Concentrations of Compound of Formula I,"4 h after administration, rat 3♂",13.9 ng/mL
same,Plasma Concentrations of Compound of Formula I,"4 h after administration, rat 4♂",6.41 ng/mL
same,Plasma Concentrations of Compound of Formula I,"6 h after administration, Mean ± SD",3.63 ± 1.19 ng/mL
same,Plasma Concentrations of Compound of Formula I,"6 h after administration, rat 1♂",3.65 ng/mL
same,Plasma Concentrations of Compound of Formula I,"6 h after administration, rat 2♂",3.25 ng/mL
same,Plasma Concentrations of Compound of Formula I,"6 h after administration, rat 3♂",5.23 ng/mL
same,Plasma Concentrations of Compound of Formula I,"6 h after administration, rat 4♂",2.40 ng/mL
same,Plasma Concentrations of Compound of Formula I,"9 h after administration, Mean ± SD",1.48 ± 0.382 ng/mL
same,Plasma Concentrations of Compound of Formula I,"9 h after administration, rat 1♂",1.45 ng/mL
same,Plasma Concentrations of Compound of Formula I,"9 h after administration, rat 2♂",1.61 ng/mL
same,Plasma Concentrations of Compound of Formula I,"9 h after administration, rat 3♂",1.89 ng/mL
same,Plasma Concentrations of Compound of Formula I,"9 h after administration, rat 4♂",0.978 ng/mL
same,Plasma Concentrations of Compound of Formula I,"12 h after administration, Mean ± SD",0.758 ± 0.142 ng/mL
same,Plasma Concentrations of Compound of Formula I,"12 h after administration, rat 1♂",0.728 ng/mL
same,Plasma Concentrations of Compound of Formula I,"12 h after administration, rat 2♂",0.799 ng/mL
same,Plasma Concentrations of Compound of Formula I,"12 h after administration, rat 3♂",0.923 ng/mL
same,Plasma Concentrations of Compound of Formula I,"12 h after administration, rat 4♂",0.582 ng/mL
same,Plasma Concentrations of Compound of Formula I,"24 h after administration, Mean ± SD",0.197 ± 0.0647 ng/mL
same,Plasma Concentrations of Compound of Formula I,"24 h after administration, rat 1♂",0.175 ng/mL
same,Plasma Concentrations of Compound of Formula I,"24 h after administration, rat 2♂",0.274 ng/mL
same,Plasma Concentrations of Compound of Formula I,"24 h after administration, rat 3♂",0.216 ng/mL
same,Plasma Concentrations of Compound of Formula I,"24 h after administration, rat 4♂",0.121 ng/mL
